PubChem BioAssay AID602196 – INSERM | 2012

- Screen: 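Genes whose knock-down alters cisplatin killing of lung cancer cells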
- Cells: human A549 lung cancer cells
- Reagent: siRNA pair against human genes
- Time to read-out: 48 h transfection before cisplatin; time from cisplatin to read-out not stated
- Treatment: cisplatin at a dose killing half of control-siRNA cells; exact dose and duration not given
- Measured: 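Cisplatin cell death as a shift from the 50% death seen with control siRNA; siRNAs toxic or growth-blocking alone scored 0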
- Direction: two-siRNA summed score (-2 to +2): higher = both siRNAs protect from cisplatin killing; -2 means both sensitise
- Call rule: 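Each siRNA scores 0 if harmful alone by LDH or WST-1, otherwise +1 if it reduces and -1 if it increases cisplatin killing; a gene is active when both siRNAs agree (sum +2 or -2)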
- Meaning of the calls: active = both siRNAs shift cisplatin killing the same way; inactive = no consistent shift, or siRNA harmful alone
Here is an unselected part of about 23,000 reagents tested. 455 of all reagents (2%) count as active. 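Active includes both protection and sensitisation; some change values fall well beyond the stated -50 to +50 range.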 Entries without a mark were called inactive. Further read-outs or replicates are left out here. Not given: the amount of reagent.

Against TAGLN3 (GeneID 29114), the entry reads two-siRNA summed score (-2 to +2) = 0.
With knock-down of PPT1 (GeneID 5538) the results were two-siRNA summed score (-2 to +2) = 1.
For DOK4 (GeneID 55715), the entry reads two-siRNA summed score (-2 to +2) = 0.
LOC440287 scored two-siRNA summed score (-2 to +2) = 2 (active).
Knock-down of LOC442198 came out at: two-siRNA summed score (-2 to +2) = 2 (active).
Knock-down of FCAR (GeneID 2204) came out at: two-siRNA summed score (-2 to +2) = 0.
PASD1 (GeneID 139135) showed two-siRNA summed score (-2 to +2) = 0.
With knock-down of CIZ1 (GeneID 25792), the screen gave two-siRNA summed score (-2 to +2) = 0.
For DHX34 (GeneID 9704), the entry reads two-siRNA summed score (-2 to +2) = 0.
LOC441998 gave two-siRNA summed score (-2 to +2) = 0.
SUMO1 (GeneID 7341) scored two-siRNA summed score (-2 to +2) = 0.
Against PCDHB5 (GeneID 26167), the entry reads two-siRNA summed score (-2 to +2) = 0.
Depletion of MRPL16 (GeneID 54948) came out at: two-siRNA summed score (-2 to +2) = 0.
With knock-down of LOC440788, the screen gave two-siRNA summed score (-2 to +2) = 0.
Silencing of DRD1 (GeneID 1812) resulted in: two-siRNA summed score (-2 to +2) = 0.
SOHLH1 (GeneID 402381) gave two-siRNA summed score (-2 to +2) = 0.
ABHD13 (GeneID 84945) showed two-siRNA summed score (-2 to +2) = 0.
After knock-down of OCRL (GeneID 4952), the screen gave two-siRNA summed score (-2 to +2) = 0.
ACTA1 (GeneID 58) scored two-siRNA summed score (-2 to +2) = 0.
Silencing of ELMO2 (GeneID 63916) gave: two-siRNA summed score (-2 to +2) = 0.
Against TBC1D9B (GeneID 23061) the deposit lists two-siRNA summed score (-2 to +2) = 0.
Depletion of VWA5B1 (GeneID 127731) resulted in: two-siRNA summed score (-2 to +2) = 0.
ASIC2-AS1 (GeneID 147004) gave two-siRNA summed score (-2 to +2) = 0.
LOC399806 scored two-siRNA summed score (-2 to +2) = 0.
HSP90AA1 (GeneID 3320) showed two-siRNA summed score (-2 to +2) = -1.
IFNL3 (GeneID 282617) gave two-siRNA summed score (-2 to +2) = 0.
Knock-down of PLOD1 (GeneID 5351) gave: two-siRNA summed score (-2 to +2) = 0.
Silencing of LOC441643 gave: two-siRNA summed score (-2 to +2) = 1.
After knock-down of PI4KB (GeneID 5298), the record shows two-siRNA summed score (-2 to +2) = 0.
HACD3 (GeneID 51495) showed two-siRNA summed score (-2 to +2) = 0.
For STRADA (GeneID 92335), the values are two-siRNA summed score (-2 to +2) = -1.

Called active, of those listed so far:
LOC440287: two-siRNA summed score (-2 to +2) = 2 (active)
LOC442198: two-siRNA summed score (-2 to +2) = 2 (active)
